{"sequences": {"note": "Protein sequences, listed by entry. Tags and fused reporters are not part of them. Residues count along the entry.", "UniProt Q9QUK6, residues 26-835": "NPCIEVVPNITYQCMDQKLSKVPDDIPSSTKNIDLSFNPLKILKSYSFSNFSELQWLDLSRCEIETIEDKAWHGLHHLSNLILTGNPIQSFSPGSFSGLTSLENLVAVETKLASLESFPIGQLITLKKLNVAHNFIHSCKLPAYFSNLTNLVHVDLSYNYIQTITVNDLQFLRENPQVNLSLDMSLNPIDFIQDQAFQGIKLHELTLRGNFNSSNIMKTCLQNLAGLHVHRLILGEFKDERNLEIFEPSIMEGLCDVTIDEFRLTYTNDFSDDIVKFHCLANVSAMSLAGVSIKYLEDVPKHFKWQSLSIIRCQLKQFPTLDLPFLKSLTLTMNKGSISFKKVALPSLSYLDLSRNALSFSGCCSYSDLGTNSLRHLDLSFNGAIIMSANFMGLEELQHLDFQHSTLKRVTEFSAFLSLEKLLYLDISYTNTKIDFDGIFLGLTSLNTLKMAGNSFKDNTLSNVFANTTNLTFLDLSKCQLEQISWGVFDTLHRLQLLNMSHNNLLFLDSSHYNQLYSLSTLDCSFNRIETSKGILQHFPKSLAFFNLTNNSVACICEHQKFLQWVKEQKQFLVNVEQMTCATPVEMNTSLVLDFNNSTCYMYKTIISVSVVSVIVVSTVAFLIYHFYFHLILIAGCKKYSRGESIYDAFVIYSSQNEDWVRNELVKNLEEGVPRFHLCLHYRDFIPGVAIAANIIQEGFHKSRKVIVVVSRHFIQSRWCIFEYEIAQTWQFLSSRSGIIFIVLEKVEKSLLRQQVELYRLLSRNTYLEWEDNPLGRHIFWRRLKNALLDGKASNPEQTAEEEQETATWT", "UniProt Q9QUN7, residues 25-784": "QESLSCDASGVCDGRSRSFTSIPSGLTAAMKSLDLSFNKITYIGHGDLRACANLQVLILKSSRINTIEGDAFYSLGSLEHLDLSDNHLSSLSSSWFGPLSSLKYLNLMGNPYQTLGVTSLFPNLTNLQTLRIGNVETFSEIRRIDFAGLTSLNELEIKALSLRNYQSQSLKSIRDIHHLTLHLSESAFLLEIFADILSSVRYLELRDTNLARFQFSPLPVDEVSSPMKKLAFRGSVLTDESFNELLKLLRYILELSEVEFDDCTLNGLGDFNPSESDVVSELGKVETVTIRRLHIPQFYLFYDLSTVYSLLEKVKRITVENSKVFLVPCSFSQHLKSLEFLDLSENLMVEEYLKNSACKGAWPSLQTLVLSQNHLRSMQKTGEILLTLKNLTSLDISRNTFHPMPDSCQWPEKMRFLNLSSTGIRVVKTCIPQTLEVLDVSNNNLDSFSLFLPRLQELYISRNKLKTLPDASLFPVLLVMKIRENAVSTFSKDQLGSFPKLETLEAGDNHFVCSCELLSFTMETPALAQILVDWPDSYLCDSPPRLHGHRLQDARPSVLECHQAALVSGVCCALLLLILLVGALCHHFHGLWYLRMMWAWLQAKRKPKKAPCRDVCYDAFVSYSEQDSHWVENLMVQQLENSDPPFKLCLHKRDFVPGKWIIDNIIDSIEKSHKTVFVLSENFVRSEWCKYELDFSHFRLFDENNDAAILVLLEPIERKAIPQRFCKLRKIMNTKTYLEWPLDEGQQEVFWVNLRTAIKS"}, "source": "paper PMC4125215", "key": {"[1]": {"biological_target": "Toll-like receptor 4 (mouse (endogenous in dendritic cells of C57BL/6 mice)) (UniProt Q9QUK6)", "test": "flow cytometry on cells; DCs derived from WT, TLR2-/- and TLR4-/- mice treated with Rv0652 (0.5 ug/ml) for 1 h, stained with Alexa568-conjugated anti-Rv0652 mAb and FITC-conjugated CD11c Ab; percentage of labelled CD11c+ cells; only the binder purified"}, "[2]": {"biological_target": "Toll-like receptor 2 (mouse (endogenous in dendritic cells of C57BL/6 mice)) (UniProt Q9QUN7)", "test": "flow cytometry on cells; DCs derived from WT, TLR2-/- and TLR4-/- mice treated with Rv0652 (0.5 ug/ml) for 1 h, stained with Alexa568-conjugated anti-Rv0652 mAb and FITC-conjugated CD11c Ab; percentage of labelled CD11c+ cells; only the binder purified"}}, "note": "Results are given in words; binding and its absence hold for the method and conditions named. Some entries that bind do so weakly or less than the wild type. Tags and fused reporters may be left off the sequences shown.", "data": [{"binder": "Recombinant Rv0652 protein, the 50S ribosomal protein L7/L12 (rplL) of Mycobacterium tuberculosis (protein, UniProt P9WHE3 1-130) MAKLSTDELLDAFKEMTLLELSDFVKKFEETFEVTAAAPVAVAAAGAAPAGAAVEAAEEQSEFDVILEAAGDKKIGVIKVVREIVSGLGLKEAKDLVDGAPKPLLEKVAKEAADEAKAKLEAAGATVTVK", "values": [{"measurement": "binding", "setting": "[1]", "result": "binds"}, {"measurement": "binding", "setting": "[2]", "result": "no binding (tested: 0.5 ug/ml)"}]}]}
